Experimental data reported in publication PMC7595155.
Results are given in words; binding and its absence hold for the method and conditions named. Binding seen in cells or lysates may run through a third protein. Some entries that bind do so weakly or less than the wild type.

The chains behind the UniProt entries cited, without tags or fusion partners. Where a name states a change or a piece, a line headed by the entry shows the natural chain unless it says otherwise.
UniProt O85041: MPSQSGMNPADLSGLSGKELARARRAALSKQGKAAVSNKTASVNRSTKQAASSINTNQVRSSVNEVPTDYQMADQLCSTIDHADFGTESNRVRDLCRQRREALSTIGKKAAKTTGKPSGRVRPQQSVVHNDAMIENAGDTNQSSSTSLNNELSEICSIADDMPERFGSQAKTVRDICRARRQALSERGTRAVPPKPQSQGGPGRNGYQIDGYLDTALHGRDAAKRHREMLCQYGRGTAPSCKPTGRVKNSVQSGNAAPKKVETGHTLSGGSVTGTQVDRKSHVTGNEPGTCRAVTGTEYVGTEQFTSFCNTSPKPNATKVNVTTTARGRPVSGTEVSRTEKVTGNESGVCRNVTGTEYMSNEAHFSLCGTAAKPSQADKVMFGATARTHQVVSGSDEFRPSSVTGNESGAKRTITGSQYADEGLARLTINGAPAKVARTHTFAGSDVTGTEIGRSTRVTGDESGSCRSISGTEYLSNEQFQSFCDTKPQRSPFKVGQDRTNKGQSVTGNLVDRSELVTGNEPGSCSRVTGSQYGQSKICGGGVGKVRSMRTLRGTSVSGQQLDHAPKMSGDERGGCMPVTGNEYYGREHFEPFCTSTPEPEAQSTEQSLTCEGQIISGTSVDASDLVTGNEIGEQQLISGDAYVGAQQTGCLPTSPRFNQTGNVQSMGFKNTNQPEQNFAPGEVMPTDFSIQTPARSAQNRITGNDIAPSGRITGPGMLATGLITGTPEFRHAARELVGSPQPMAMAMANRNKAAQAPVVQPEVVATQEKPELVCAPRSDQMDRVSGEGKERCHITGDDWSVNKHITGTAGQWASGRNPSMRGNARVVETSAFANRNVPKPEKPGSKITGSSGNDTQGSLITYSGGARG

Molecular target: recombinant empty α-carboxysome shell produced from the synthetic cso-2 operon (CsoS2, CsoS4A, CsoS4B, CsoS1C, CsoS1A, CsoS1B, CsoS1D) (Halothiobacillus neapolitanus) (UniProt O85041)
Experiment: co-sedimentation; proteins co-expressed in E. coli; 50,000 × g pellet of the lysate resuspended in TEMB buffer (5 mM Tris-HCl pH 8.0, 1 mM EDTA, 10 mM MgCl2, 20 mM NaHCO3), sucrose gradient (10-30% or 10-50% w/v), 105,000 × g for 30 min; fractions read by SDS-PAGE, immunoblot (anti-His, anti-CsoS1) and mass spectrometry

binding: binds
B1: CsoSCA, β-carbonic anhydrase of the α-carboxysome, Halothiobacillus neapolitanus (enzyme, UniProt O85042 1-514)
chain: MNTRNTRSKQRAPFGVSSSVKPRLDLIEQAPNPAYDRHPACITLPERTCRHPLTDLEANEQLGRCEDSVKNRFDRVIPFLQVVAGIPLGLDYVTRVQELAQSSLGHTLPEELLKDNWISGHNLKGIFGYATAKALTAATEQFSRKIMSEKDDSASAIGFFLDCGFHAVDISPCADGRLKGLLPYILRLPLTAFTYRKAYAGSMFDIEDDLAQWEKNELRRYREGVPNTADQPTRYLKIAVYHFSTSDPTHSGCAAHGSNDRAALEAALTQLMKFREAVENAHCCGASIDILLIGVDTDTDAIRVHIPDSKGFLNPYRYVDNTVTYAQTLHLAPDEARVIIHEAILNANRSDGWAKGNGVASEGMRRFIGQLLINNLSQIDYVVNRHGGRYPPNDIGHAERYISVGDGFDEVQIRNLAYYAHLDTVEENAIDVDVGIKIFTKLNLSRGLPIPIAIHYRYDPNVPGSRERTVVKARRIYNAIKERFSSLDEQNLLQFRLSVQAQDIGSPIEEVASA
